Measurements published in ChEMBL document CHEMBL3085714 (J Med Chem, 2013).
This continues a long series; more values of the same kind are listed elsewhere.

How the values were obtained:
Homo sapiens [1] = species on record: Homo sapiens; test: Selectivity for p38alpha MAP kinase (unknown origin) over WEE1 (unknown origin)
Homo sapiens [2] = species on record: Homo sapiens; test: Selectivity for p38alpha MAP kinase (unknown origin) over TYRO3 (unknown origin)
Homo sapiens [3] = species on record: Homo sapiens; test: Selectivity for p38alpha MAP kinase (unknown origin) over TRK-C (unknown origin)
Homo sapiens [4] = species on record: Homo sapiens; test: Selectivity for p38alpha MAP kinase (unknown origin) over SYK (unknown origin)
Homo sapiens [5] = species on record: Homo sapiens; test: Selectivity for p38alpha MAP kinase (unknown origin) over SGK2 (unknown origin)
Homo sapiens [6] = species on record: Homo sapiens; test: Selectivity for p38alpha MAP kinase (unknown origin) over RPS6KA3 (unknown origin)
Homo sapiens [7] = species on record: Homo sapiens; test: Selectivity for p38alpha MAP kinase (unknown origin) over CDK9/CycK (unknown origin)
Homo sapiens [8] = species on record: Homo sapiens; test: Selectivity for p38alpha MAP kinase (unknown origin) over CDK1/CycA (unknown origin)
Homo sapiens [9] = species on record: Homo sapiens; test: Selectivity for p38alpha MAP kinase (unknown origin) over CDC42BPA (unknown origin)
Homo sapiens [10] = species on record: Homo sapiens; test: Selectivity for p38alpha MAP kinase (unknown origin) over CAMKK2 (unknown origin)
Homo sapiens [11] = species on record: Homo sapiens; test: Selectivity for p38alpha MAP kinase (unknown origin) over BMX (unknown origin)
Homo sapiens [12] = species on record: Homo sapiens; test: Selectivity for p38alpha MAP kinase (unknown origin) over Aurora-A (unknown origin)
Homo sapiens [13] = species on record: Homo sapiens; test: Selectivity for p38alpha MAP kinase (unknown origin) over ACV-R1B (unknown origin)
Homo sapiens [14] = species on record: Homo sapiens; test: Selectivity for p38alpha MAP kinase (unknown origin) over ABL2 (unknown origin)
Homo sapiens [15] = species on record: Homo sapiens; test: Selectivity for p38alpha MAP kinase (unknown origin) over ABL1 F317l mutant (unknown origin)
Homo sapiens [16] = species on record: Homo sapiens; test: Selectivity for p38alpha MAP kinase (unknown origin) over ACV-RL1 (unknown origin)
Homo sapiens [17] = species on record: Homo sapiens; test: Selectivity for p38alpha MAP kinase (unknown origin) over RIPK5 (unknown origin)
Homo sapiens [18] = species on record: Homo sapiens; test: Selectivity for p38alpha MAP kinase (unknown origin) over PHKG1 (unknown origin)
Homo sapiens [19] = species on record: Homo sapiens; test: Selectivity for p38alpha MAP kinase (unknown origin) over PDK1 (unknown origin)
Homo sapiens [20] = species on record: Homo sapiens; test: Selectivity for p38alpha MAP kinase (unknown origin) over p38-gamma (unknown origin)
Homo sapiens [21] = species on record: Homo sapiens; test: Selectivity for p38alpha MAP kinase (unknown origin) over p38-beta (unknown origin)
Homo sapiens [22] = species on record: Homo sapiens; test: Selectivity for p38alpha MAP kinase (unknown origin) over NIK (unknown origin)
Homo sapiens [23] = species on record: Homo sapiens; test: Selectivity for p38alpha MAP kinase (unknown origin) over MARK2 (unknown origin)
Homo sapiens [24] = species on record: Homo sapiens; test: Selectivity for p38alpha MAP kinase (unknown origin) over MAPKAPK3 (unknown origin)
Homo sapiens [25] = species on record: Homo sapiens; test: Selectivity for p38alpha MAP kinase (unknown origin) over MAP3K9 (unknown origin)
Homo sapiens [26] = species on record: Homo sapiens; test: Selectivity for p38alpha MAP kinase (unknown origin) over MAP3K10 (unknown origin)
Homo sapiens [27] = species on record: Homo sapiens; test: Selectivity for p38alpha MAP kinase (unknown origin) over wild type LRRK2 (unknown origin)
Homo sapiens [28] = species on record: Homo sapiens; test: Selectivity for p38alpha MAP kinase (unknown origin) over LRRK2 I2020T mutant (unknown origin)
Homo sapiens [29] = species on record: Homo sapiens; test: Selectivity for p38alpha MAP kinase (unknown origin) over LIMK2 (unknown origin)
Homo sapiens [30] = species on record: Homo sapiens; test: Selectivity for p38alpha MAP kinase (unknown origin) over JAK2 (unknown origin)
Homo sapiens [31] = species on record: Homo sapiens; test: Selectivity for p38alpha MAP kinase (unknown origin) over INSR (unknown origin)
Homo sapiens [32] = species on record: Homo sapiens; test: Selectivity for p38alpha MAP kinase (unknown origin) over HIPK2 (unknown origin)
Homo sapiens [33] = species on record: Homo sapiens; test: Selectivity for p38alpha MAP kinase (unknown origin) over GRK2 (unknown origin)
Homo sapiens [34] = species on record: Homo sapiens; test: Selectivity for p38alpha MAP kinase (unknown origin) over FYN (unknown origin)
Homo sapiens [35] = species on record: Homo sapiens; test: Selectivity for p38alpha MAP kinase (unknown origin) over FES (unknown origin)
Homo sapiens [36] = species on record: Homo sapiens; test: Selectivity for p38alpha MAP kinase (unknown origin) over EPHB3 (unknown origin)
Homo sapiens [37] = species on record: Homo sapiens; test: Selectivity for p38alpha MAP kinase (unknown origin) over EGFR T790M/L858R double mutant (unknown origin)
Homo sapiens [38] = species on record: Homo sapiens; test: Selectivity for p38alpha MAP kinase (unknown origin) over COT (unknown origin)
Homo sapiens [39] = species on record: Homo sapiens; test: Selectivity for p38alpha MAP kinase (unknown origin) over CK1-gamma3 (unknown origin)
Homo sapiens [40] = species on record: Homo sapiens; test: Selectivity for p38alpha MAP kinase (unknown origin) over CK1-epsilon (unknown origin)

Selectivity ratio (Homo sapiens [1]): > 1000 | Selectivity ratio (Homo sapiens [2]): > 1000 | Selectivity ratio (Homo sapiens [3]): > 1000 | Selectivity ratio (Homo sapiens [4]): > 1000 | Selectivity ratio (Homo sapiens [5]): > 1000 | Selectivity ratio (Homo sapiens [6]): > 1000 | Selectivity ratio (Homo sapiens [7]): > 1000 | Selectivity ratio (Homo sapiens [8]): > 1000 | Selectivity ratio (Homo sapiens [9]): > 1000 | Selectivity ratio (Homo sapiens [10]): > 1000 | Selectivity ratio (Homo sapiens [11]): > 1000 | Selectivity ratio (Homo sapiens [12]): > 1000 | Selectivity ratio (Homo sapiens [13]): > 1000 | Selectivity ratio (Homo sapiens [14]): > 1000 | Selectivity ratio (Homo sapiens [15]): > 1000 | Selectivity ratio (Homo sapiens [16]): > 1000 | Selectivity ratio (Homo sapiens [17]): > 1000 | Selectivity ratio (Homo sapiens [18]): > 1000 | Selectivity ratio (Homo sapiens [19]): > 1000 | Selectivity ratio (Homo sapiens [20]): > 1000 | Selectivity ratio (Homo sapiens [21]): > 1000 | Selectivity ratio (Homo sapiens [22]): > 1000 | Selectivity ratio (Homo sapiens [23]): > 1000 | Selectivity ratio (Homo sapiens [24]): > 1000 | Selectivity ratio (Homo sapiens [25]): > 1000 | Selectivity ratio (Homo sapiens [26]): > 1000 | Selectivity ratio (Homo sapiens [27]): > 1000 | Selectivity ratio (Homo sapiens [28]): > 1000 | Selectivity ratio (Homo sapiens [29]): > 1000 | Selectivity ratio (Homo sapiens [30]): > 1000 | Selectivity ratio (Homo sapiens [31]): > 1000 | Selectivity ratio (Homo sapiens [32]): > 1000 | Selectivity ratio (Homo sapiens [33]): > 1000 | Selectivity ratio (Homo sapiens [34]): > 1000 | Selectivity ratio (Homo sapiens [35]): > 1000 | Selectivity ratio (Homo sapiens [36]): > 1000 | Selectivity ratio (Homo sapiens [37]): > 1000 | Selectivity ratio (Homo sapiens [38]): > 1000 | Selectivity ratio (Homo sapiens [39]): > 1000 | Selectivity ratio (Homo sapiens [40]): > 1000
Compound: Cc1cc(F)c(NC(=O)c2ccsc2)cc1Nc1ccc2c(c1)OCc1ccc(OC[C@H](O)CO)cc1C2=O
